The results in this text go back to article PMC6523098.

In the assay the target is BrRAP2.4 PEST motif alone (GST fusion) (Brassica rapa). As to the kind of experiment: pull-down; GST:BrRAP2.4 proteins on beads, eluted His:AtBPM3; 100 mM Tris/HCl pH 7.5, 150 mM NaCl, 0.1% Tween-20, 4 °C, one hour; both purified.

These are yes or no findings as the source states them, for the method shown. Binding can be weak; no strength is given. Tags and fused reporters may be left off the sequences shown.

B1: His:AtBPM3 (protein, UniProt O22286 1-408)
chain: MSTVGGIEQLIPDSVSTSFIETVNGSHQFTIQGYSLAKGMSPGKFIQSDIFSVGGYDWAIYFYPDGKNPEDQSSYISLFIALASDSNDIRALFELTLMDQSGKGKHKVHSHFDRALEGGPYTLKYKGSMWGYKRFFKRSALETSDYLKDDCLVINCTVGVVRARLEGPKQYGIVLPLSNMGQGLKDLLDSEVGCDIAFQVGDETYKAHKLILAARSPVFRAQFFGPIGNNNVDRIVIDDIEPSIFKAMLSFIYTDVLPNVHEITGSTSASSFTNMIQHLLAAADLYDLARLKILCEVLLCEKLDVDNVATTLALAEQHQFLQLKAFCLEFVASPANLGAVMKSEGFKHLKQSCPTLLSELLNTVAAADKSSTSGQSNKKRSASSVLGCDTTNVRQLRRRTRKEVRAVS
For B1, the binding entry is “binds”.
